In the supplement of paper PMC10398353:
Values joined by “and” are separate entries in the source; they are usually repeats but may differ in a detail not shown here. Equal entries are not always repeated. Structures can show the parent of a compound that is named as a salt. Some of the results follow. This is a noisy data set.

These molecules were tested on Salmonella enterica serovar Typhimurium ST313 D23580 (assay: normalized bacterial growth (OD600 20 h minus 0 h, interquartile-mean normalized) (fraction of plate interquartile mean); higher = more bacterial growth (less inhibition)). Settings: LPM (pH 5.8, low phosphate, low Mg2+), concentration: 10 µM, temperature: 37 °C.

Compound	normalized bacterial growth
C1N2CN3CN1CN(C2)C3	1.07
O=C(O)C1=C[C@@H](O)[C@@H](O)[C@H](O)C1	1.11
CCCCCN(C)CCC(O)(P(=O)(O)O)P(=O)(O)O [Ibandronate sodium]	1.07
CC(C)=CCC/C(C)=C/CC/C(C)=C/CC/C(C)=C/C(=O)O	0.514
CCCCCC1C(=O)CCC1CC(=O)OC (stereo unspecified)	0.909
Nc1ccc(S(=O)(=O)NC(=O)c2ccccc2)cc1	1.37
C[N+](C)(C)CCOP(=O)(O)OP(=O)([O-])OC[C@H]1O[C@@H](n2ccc(N)nc2=O)[C@H](O)[C@@H]1O [Citicoline sodium]	1.05
C[N+](C)(C)CCOP(=O)(O)OP(=O)([O-])OC[C@H]1O[C@@H](n2ccc(N)nc2=O)[C@H](O)[C@@H]1O	1.12
CC(C)c1nc(N(C)S(C)(=O)=O)nc(-c2ccc(F)cc2)c1/C=C/[C@@H](O)C[C@@H](O)CC(=O)O	0.983
CCNC(=O)[C@H]1O[C@@H](n2cnc3c(N)nc(NCCc4ccc(CCC(=O)O)cc4)nc32)[C@H](O)[C@@H]1O	1.13
CNCCNS(=O)(=O)c1cccc2cnccc12 [H-8 dihydrochloride]	0.968
O=c1cc(-c2ccc(O)cc2)oc2cc(O[C@@H]3O[C@H](CO)[C@@H](O)[C@H](O)[C@H]3O[C@@H]3OC[C@](O)(CO)[C@H]3O)cc(O)c12	0.926
C[C@](N)(Cc1ccc(O)cc1)C(=O)O [L-alpha-Methyl-p-tyrosine]	1.26
CS(=O)(=O)c1ccc([C@@H](O)[C@@H](CF)NC(=O)C(Cl)Cl)cc1 [Florfenicol]	0.012
CS(=O)(=O)c1ccc([C@@H](O)[C@@H](CF)NC(=O)C(Cl)Cl)cc1	0.071
CCN(CC)CCCC(C)Nc1ccnc2cc(Cl)ccc12 (stereo unspecified) [Chloroquine diphosphate]	1.23
Oc1ccc(C2CNCCc3c2cc(O)c(O)c3Cl)cc1 (stereo unspecified) [Fenoldopam bromide]	1.19
CC(=O)N[C@@H](Cc1c[nH]c2ccccc12)C(=O)O	1.14
CC(C(=O)O)c1cccc(Oc2ccccc2)c1 (stereo unspecified)	1.27
CC(C(=O)O)c1cccc(Oc2ccccc2)c1 (stereo unspecified) [Fenoprofen calcium salt dihydrate]	1.11
O=C(O)CN(CCN(CC(=O)O)CC(=O)O)CC(=O)O.[Na+].[Na+].[Na+]	0.271
O=C1OC(c2ccc(O)cc2)(c2ccc(O)cc2)c2ccccc21	1.07

Compound	normalized bacterial growth
COc1cc(OC)c2c(=O)cc(-c3ccccc3)oc2c1	0.737
COc1ccc2c(C)cc(=O)oc2c1	1.05
COC(=O)C[C@H]1C(C)(C)[C@@H](O)[C@@H]2CC3=C4C=C(OC)O[C@@H](c5ccoc5)[C@]4(C)CCC3[C@@]1(C)C2=O (stereo partly drawn) [3-DEOXO-3beta-HYDROXYMEXICANOLIDE 16-ENOL ETHER]	0.703
O=C1NC(=O)C(c2ccccc2[N+](=O)[O-])=C1Nc1ccc(O)c(Cl)c1	1.23
CCCc1ncc(C[n+]2ccccc2C)c(N)n1	1.18
C=CC(C)(O)CCC=C(C)CCC=C(C)C (mixture of isomers)	0.918
CC1(C)CCC(NC(=O)[C@@H](N)CCC(=O)O)CC1	1.14
O=C(O)C1CCNCC1 [Isonipecotic acid]	1.2
COc1cc(O)c(C(=O)/C=C/c2ccc(OC)c(O)c2)c(OC)c1	0.432
CC(CCC(=O)O)[C@H]1CCC2C3C[C@H](O)[C@@H]4C[C@H](O)CC[C@]4(C)C3CC[C@@]21C (stereo partly drawn) [alpha-HYDROXYDEOXYCHOLIC ACID]	1.2
OC[C@@H](O)[C@@H](O)[C@H](O)[C@H](O)CO	1.1
C=CCc1ccc(O)c(OC)c1	1.1
CC(=O)OCC(=O)NCCCOc1cccc(CN2CCCCC2)c1 [Roxatidine Acetate HCl]	0.892
CCn1cc(C(=O)O)c(=O)c2cc(F)c(N3CCNCC3)nc21	1.27
CC1(C)CCC=[N+]1[O-] ["5,5-Dimethyl-1-pyrroline-N-oxide"]	1.09
c1ccc(CC2=NCCN2)cc1	0.688
NCCCCC(=O)O [5-Aminovaleric acid hydrochloride]	1.05
OCCN1CCN(CCCN2c3ccccc3Sc3ccc(C(F)(F)F)cc32)CC1 [Fluphenazine dihydrochloride]	1.18
CC(C)(Oc1ccc(CCNC(=O)c2ccc(Cl)cc2)cc1)C(=O)O	0.925
CC1=CC(=O)[C@H]2C(C)(C)CCC[C@]2(C)[C@@]1(O)CCc1ccoc1	0.901
CC(=O)OCC(=O)[C@H]1CC[C@H]2[C@@H]3CC=C4C[C@@H](O)CC[C@]4(C)[C@H]3CC[C@]12C	0.869
Clc1ccc2c(c1)C(N1CCNCC1)=Nc1ccccc1O2 [Amoxapine]	1.02

Compound	normalized bacterial growth
CC(C)[C@@H](C)/C=C/[C@@H](C)[C@H]1CC[C@H]2C3=CC=C4C[C@@H](O)CC[C@]4(C)[C@H]3CC[C@]12C	0.961
O=C(O)CCCc1c[nH]c2ccccc12	1.17
O=C1c2ccccc2C(=O)C1c1ccccc1	1.49
O=C(O)CCc1nc(-c2ccccc2)c(-c2ccccc2)o1 [Oxaprozin]	1.04
CC(C(=O)O)c1ccc(CC2CCCC2=O)cc1 (stereo unspecified) [loxoprofen]	0.98
CC[C@H]1OC(=O)[C@H](C)[C@@H](O[C@H]2C[C@@](C)(OC)[C@@H](O)[C@H](C)O2)[C@H](C)[C@@H](O[C@@H]2O[C@H](C)C[C@H](N(C)C)[C@H]2O)[C@](C)(O)C[C@@H](C)C(=O)[C@H](C)[C@@H](O)[C@]1(C)O	1.14
CC1=C(/C=C/C(C)=C/C=C/C(C)=C/C=C/C=C(C)/C=C/C=C(C)/C=C/C2=C(C)CCCC2(C)C)C(C)(C)CCC1 [beta-CAROTENE]	0.963
Cc1c(Cl)cccc1Nc1ccccc1C(=O)O	0.926
CCCSc1ccc2[nH]c(NC(=O)OC)nc2c1 [Albendazole]	0.918
CCCSc1ccc2[nH]c(NC(=O)OC)nc2c1	1.01
C[C@@H]1CC[C@H]2C(C)(C)[C@H]3C[C@@]12CC[C@@]3(C)O	1.15
CO[C@H]1/C=C/O[C@@]2(C)Oc3c(C)c(O)c4c(O)c(c(/C=N/N5CCN(C)CC5)c(O)c4c3C2=O)NC(=O)/C(C)=C\C=C\[C@H](C)[C@H](O)[C@@H](C)[C@@H](O)[C@@H](C)[C@H](OC(C)=O)[C@@H]1C	1.31 and 1
COc1cc(C)c(C(=O)O)c(O)c1	1.1
Cc1ccc(N(CC2=NCCN2)c2cccc(O)c2)cc1 [Phentolamine mesylate]	0.821
Cc1ccc(N(CC2=NCCN2)c2cccc(O)c2)cc1	1
CCCCCCCCCCCCCCCC(=O)NCC(COP(=O)([O-])OCC[N+](C)(C)C)OCC (racemic) [rac-2-Ethoxy-3-hexadecanamido-1-propylphosphocholine]	1.68
CC(C)(C)c1ccc(/C=C/C(=O)Nc2ccc3c(c2)OCCO3)cc1	0.958
CNC(=O)[C@H]1O[C@@H](n2cnc3c(N)ncnc32)[C@H](O)[C@@H]1O [5'-N-Methyl carboxamidoadenosine]	0.93
O=C(O)c1ccccc1-c1c2cc(I)c(=O)c(I)c-2oc2c(I)c(O)c(I)cc12	1.17
CCc1ccc(CCOc2ccc(CC3SC(=O)NC3=O)cc2)nc1 (stereo unspecified)	1.02
CC[n+]1c(/C=C/C=C2/N(C)c3ccccc3C2(C)C)sc2ccccc21	0.807
CN(C)[C@@H]1C(O)=C(C(N)=O)C(=O)[C@@]2(O)C(O)=C3C(=O)c4c(O)cccc4[C@@](C)(O)[C@H]3C[C@@H]12	0.0571

Compound	normalized bacterial growth
COc1cc2nc(N3CCN(C(=O)OCc4ccccc4)[C@H](C(=O)NC(C)(C)C)C3)nc(N)c2cc1OC	0.966
COCCCC/C(=N\OCCN)c1ccc(C(F)(F)F)cc1 [Fluvoxamine maleate]	1.12
COC(=O)[C@H](c1ccccc1Cl)N1CCc2sccc2C1	0.96
C[C@]12CCC(=O)C=C1CC[C@@H]1[C@@H]2C(=O)C[C@@]2(C)[C@H]1CC[C@]2(O)C(=O)CO [Cortisone]	0.664
C[C@]12CCC(=O)C=C1CC[C@@H]1[C@@H]2C(=O)C[C@@]2(C)[C@H]1CC[C@]2(O)C(=O)CO	1.07
CO[C@H]1[C@H](OC(=O)c2ccc(C)[nH]2)[C@H](O)[C@@H](Oc2ccc3c(O)c(NC(=O)c4c[nH]c(C(=O)Nc5c(O)c6ccc(O[C@H]7OC(C)(C)[C@@H](OC)[C@H](OC(=O)c8ccc(C)[nH]8)[C@@H]7O)c(C)c6oc5=O)c4C)c(=O)oc3c2C)OC1(C)C	0.814
CCCCN1CCC(n2c(=O)[nH]c3ccccc32)CC1 [NS 521 oxalate]	1.1
NC(=O)c1ccccc1O	1
CCOC(=O)N1CCC(=C2c3ccc(Cl)cc3CCc3cccnc32)CC1 [Loratadine]	0.821
Nc1nc(F)nc2c1ncn2[C@@H]1O[C@H](COP(=O)(O)O)[C@@H](O)[C@@H]1O	1.14
COc1ccc(-c2coc3cc(O)ccc3c2=O)cc1	1.04
Oc1c(Br)cc(Br)c2cccnc12	0.105
CCC(=O)O[C@H]1CC[C@H]2[C@@H]3CCc4cc(O)ccc4[C@H]3CC[C@]12C	1.03
COc1ccc(CC(C)NCC(O)c2ccc(O)c(NC=O)c2)cc1 (stereo unspecified) [Formoterol]	0.482
O=C(OCCN1CCOCC1)C1(c2ccccc2)CCCCC1	0.782
Cc1nnc(NS(=O)(=O)c2ccc(N)cc2)s1	1.11
CN(C)c1ccc(/C=C2/C(=O)Nc3ccccc32)cc1	0.848
CCN1CCC[C@H]1CNC(=O)c1c(OC)ccc(Br)c1OC [Remoxipride Hydrochloride]	1.08
COc1ccc(/C=C/C(=O)c2c(O)cc(OC)cc2OC)cc1	0.923
C1CCN2C[C@@H]3C[C@@H](CN4CCCC[C@@H]34)[C@H]2C1	0.997 and 0.843

An excerpt of the results above, for reference:
Compound	normalized bacterial growth
CC(C(=O)O)c1cccc(Oc2ccccc2)c1 (stereo unspecified) [Fenoprofen calcium salt dihydrate]	1.11
O=C(O)CN(CCN(CC(=O)O)CC(=O)O)CC(=O)O.[Na+].[Na+].[Na+]	0.271
O=C1OC(c2ccc(O)cc2)(c2ccc(O)cc2)c2ccccc21	1.07
COc1cc(OC)c2c(=O)cc(-c3ccccc3)oc2c1	0.737
COc1ccc2c(C)cc(=O)oc2c1	1.05
COC(=O)C[C@H]1C(C)(C)[C@@H](O)[C@@H]2CC3=C4C=C(OC)O[C@@H](c5ccoc5)[C@]4(C)CCC3[C@@]1(C)C2=O (stereo partly drawn) [3-DEOXO-3beta-HYDROXYMEXICANOLIDE 16-ENOL ETHER]	0.703
O=C1NC(=O)C(c2ccccc2[N+](=O)[O-])=C1Nc1ccc(O)c(Cl)c1	1.23
